# Test results published in PubChem BioAssay AID540303 (National Center for Advancing Translational Sciences (NCATS), 2011).
# In all, about 330,000 compounds went through this assay and about 1,000 (0.3%) were called active. This list was built around the results that the source calls inconclusive (neither active nor inactive); the mix of calls is not that of the screen. Calls come from the whole dose curve; as a rule, active = well fitted inhibition curve with a large enough effect; inconclusive = small, poorly fitted or top-dose-only effect; inactive = no such curve, though single readings can be large or run the other way; tested in mouse RAW 264.7 cells. Potencies of inconclusive entries are doubtful fits and often do not repeat.
# Assay: qHTS for Inhibitors of Cell Surface uPA Generation; note: nearly all actives have a fitted effect of over 55% in size
# Settings: cell surface uPA generation assay; series mostly up to 38.3 µM; activity change, negative = inhibition: at the top concentration
# Outline: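 Validation set in qHTS format. RAW 264.7 cells were pre-plated overnight and then exposed to compounds (up to 38.3 uM final) for 24 h at 37 C in 5% CO2, followed by a luminescent ATP-Lite measurement.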
# % is set by controls: 0 for no effect and ±100 for the full control effect; potency is the fitted concentration of half-maximal effect.
SMILES,Potency,"activity change, negative = inhibition"
O=C(Nc1ccc(Cl)cn1)c1cccc2c(Br)cccc12,"inconclusive: 7.08 µM [inhibitor, single point]",
O=C1c2ccccc2-c2nnc(-c3ccc(O)cc3)cc21,"inconclusive: 11.2 µM [inhibitor, partial curve, poor fit]",
Cc1ccc(S(=O)(=O)N2CCCC2CNC(=O)C(=O)Nc2ccc(F)cc2)cc1 (centres undefined),"inconclusive: 12.6 µM [inhibitor, single point]",
Clc1ccc(-c2nnc(CSc3nnc(-c4cccs4)n3Cc3ccccc3)o2)cc1,"inconclusive: 7.94 µM [inhibitor, partial curve]",
CN1C[C@H](C(=O)NC2(C)OC3(O)[C@@H]4CCCN4C(=O)[C@H](Cc4ccccc4)N3C2=O)CC2c3cccc4[nH]cc(c34)C[C@H]21 (some centres undefined),,inactive: -17.6%
CCOc1ccc(CNC(=O)CCCn2ccc3cc(S(=O)(=O)N4CCCC4)ccc32)cc1,,inactive: -21.6%
COc1ccc2c(c1)OC[C@H]1[C@H]2N2C(=O)c3cc(OC)ccc3NC(=O)[C@@]2(C)[C@H]1c1ccccc1,"inconclusive: 12.6 µM [inhibitor, single point]",
CCN1C(=O)[C@H]2[C@@H](c3ccc(OC)cc3)N3C(=O)CN(CCOC)C(=O)[C@@]3(Cc3ccccc3)[C@H]2C1=O,,inactive: 0.195%
O=[N+]([O-])c1ccc2c(c1)C(=Nc1ccccc1)c1ccccc1-2,,inactive: -6.08%
CCC(C)(C)c1ccc(OCCCC[n+]2cccc(C)c2C)c(C(C)(C)CC)c1,active: 8.91 µM,
N#CCc1nn(-c2ccccc2)c2ncnc(N)c12,"inconclusive: 3.98 µM [inhibitor, full curve]",
Cc1ccc2c(c1)C(=O)N1[C@H]3c4cc(Cl)ccc4OC[C@@H]3[C@H](c3ccccc3)[C@]1(C)C(=O)N2,"inconclusive: 12.6 µM [inhibitor, single point]",
Cc1ccccc1CS(=O)(=O)c1nnc([C@H](Cc2ccccc2)NC(=O)OC(C)(C)C)o1,"inconclusive: 4.47 µM [inhibitor, partial curve]",
CC(=O)c1ccc(OC(C)C(=O)Nc2cccc(S(=O)(=O)NCc3ccco3)c2)cc1 (centres undefined),"inconclusive: 1.78 µM [inhibitor, full curve, poor fit]",
CCOc1ccc(-c2nnc(N)s2)cc1,"inconclusive: 4.47 µM [inhibitor, partial curve]",
CC(C)(C)c1ccc(C(=O)NC(=S)Nn2cnnc2)cc1,,inactive: -5.21%
CN(C)/C=C1\N=C(c2ccccc2)OC1=O,,inactive: -0.588%
CC(=O)NC12CC3CC(C1)CC(C(=O)NCC(=O)Nc1c(C)cc(C)cc1C)(C3)C2,"inconclusive: 0.794 µM [inhibitor, full curve, poor fit]",
Cc1ccc(Nc2ncnc3nc[nH]c23)cc1Cl,"inconclusive: 10 µM [inhibitor, partial curve, poor fit]",
C#CC[N+](C)(C)CC#Cc1ccc(C)cc1,"inconclusive: 12.6 µM [inhibitor, single point]",
Cc1cccc(Nc2nc(-c3c(C)nc4ccccn34)cs2)c1,"inconclusive: 12.6 µM [inhibitor, single point]",
Cc1ccccc1C(=O)Nc1ccccn1,,inactive: 1.96%
CCn1c(O)c(C=NC2CCCC2)sc1=S,,inactive: 2.31%

# Part of the list above, with bars between the fields:
SMILES | Potency | activity change, negative = inhibition
O=C(Nc1ccc(Cl)cn1)c1cccc2c(Br)cccc12 | inconclusive: 7.08 µM [inhibitor, single point] | 
O=C1c2ccccc2-c2nnc(-c3ccc(O)cc3)cc21 | inconclusive: 11.2 µM [inhibitor, partial curve, poor fit] | 
Clc1ccc(-c2nnc(CSc3nnc(-c4cccs4)n3Cc3ccccc3)o2)cc1 | inconclusive: 7.94 µM [inhibitor, partial curve] | 
CN1C[C@H](C(=O)NC2(C)OC3(O)[C@@H]4CCCN4C(=O)[C@H](Cc4ccccc4)N3C2=O)CC2c3cccc4[nH]cc(c34)C[C@H]21 (some centres undefined) |  | inactive: -17.6%
CCOc1ccc(CNC(=O)CCCn2ccc3cc(S(=O)(=O)N4CCCC4)ccc32)cc1 |  | inactive: -21.6%
COc1ccc2c(c1)OC[C@H]1[C@H]2N2C(=O)c3cc(OC)ccc3NC(=O)[C@@]2(C)[C@H]1c1ccccc1 | inconclusive: 12.6 µM [inhibitor, single point] | 
O=[N+]([O-])c1ccc2c(c1)C(=Nc1ccccc1)c1ccccc1-2 |  | inactive: -6.08%
CCC(C)(C)c1ccc(OCCCC[n+]2cccc(C)c2C)c(C(C)(C)CC)c1 | active: 8.91 µM | 
N#CCc1nn(-c2ccccc2)c2ncnc(N)c12 | inconclusive: 3.98 µM [inhibitor, full curve] | 
Cc1ccc2c(c1)C(=O)N1[C@H]3c4cc(Cl)ccc4OC[C@@H]3[C@H](c3ccccc3)[C@]1(C)C(=O)N2 | inconclusive: 12.6 µM [inhibitor, single point] | 
Cc1ccccc1CS(=O)(=O)c1nnc([C@H](Cc2ccccc2)NC(=O)OC(C)(C)C)o1 | inconclusive: 4.47 µM [inhibitor, partial curve] | 
CC(=O)c1ccc(OC(C)C(=O)Nc2cccc(S(=O)(=O)NCc3ccco3)c2)cc1 (centres undefined) | inconclusive: 1.78 µM [inhibitor, full curve, poor fit] | 
CCOc1ccc(-c2nnc(N)s2)cc1 | inconclusive: 4.47 µM [inhibitor, partial curve] | 
CC(C)(C)c1ccc(C(=O)NC(=S)Nn2cnnc2)cc1 |  | inactive: -5.21%
CN(C)/C=C1\N=C(c2ccccc2)OC1=O |  | inactive: -0.588%
CC(=O)NC12CC3CC(C1)CC(C(=O)NCC(=O)Nc1c(C)cc(C)cc1C)(C3)C2 | inconclusive: 0.794 µM [inhibitor, full curve, poor fit] | 
Cc1ccc(Nc2ncnc3nc[nH]c23)cc1Cl | inconclusive: 10 µM [inhibitor, partial curve, poor fit] | 
C#CC[N+](C)(C)CC#Cc1ccc(C)cc1 | inconclusive: 12.6 µM [inhibitor, single point] | 
Cc1cccc(Nc2nc(-c3c(C)nc4ccccn34)cs2)c1 | inconclusive: 12.6 µM [inhibitor, single point] | 
Cc1ccccc1C(=O)Nc1ccccn1 |  | inactive: 1.96%
CCn1c(O)c(C=NC2CCCC2)sc1=S |  | inactive: 2.31%

# (next part)

SMILES,Potency,"activity change, negative = inhibition"
Cc1ccc(NC(=S)NCCC2=CCCCC2)cc1,,inactive: -9.06%
COc1cccc(NC(=O)N2C3CCCC2CC(NC(=O)C(C)(C)C)C3)c1 (centres undefined),"inconclusive: 3.55 µM [inhibitor, full curve, poor fit]",
CCOC(=O)c1[nH]c2c(c1C)C(=O)CC(c1ccc(F)cc1)C2 (centres undefined),active: 1.26 µM,
COCCCNc1nc2ccccc2nc1NS(=O)(=O)c1cc(Cl)ccc1Cl,"inconclusive: 2.51 µM [inhibitor, partial curve, poor fit]",
COCCOC(=O)c1[nH]c2c(c1C)C(=O)C(C(=O)OC)C(C)C2 (centres undefined),"inconclusive: 12.6 µM [inhibitor, partial curve, poor fit]",
COc1cc(OC)c2c(-c3cccc(-c4cccc(C)c4)c3)cc(=O)oc2c1,active: 3.16 µM,
CC1=NN(c2ccccc2)C(=O)C1C(=O)c1ccc(Cl)cc1 (centres undefined),"inconclusive: 10 µM [inhibitor, partial curve, poor fit]",
COc1ccc(C2CC(=O)N3CN(c4ccc(C)c(Cl)c4)CSC3=C2C#N)cc1OC (centres undefined),active: 7.08 µM,
CCC(C)/C=C/C1=CC2=C(Cl)C(=O)C3(C)OC(=O)C(C(=O)C(C)C(C)O)C3C2=CO1 (centres undefined),"inconclusive: 31.6 µM [inhibitor, partial curve, poor fit]",
CC(=O)n1cc([C@H]2C=C(C(=O)N3CCN(Cc4ccc5c(c4)OCO5)CC3)O[C@@H](OCc3ccc(CO)cc3)C2)c2ccccc21,"inconclusive: 7.08 µM [inhibitor, single point]",
CSc1ccc(/C=N\Nc2nncn2N)cc1,"inconclusive: 5.01 µM [inhibitor, single point]",
CCCc1ncc(CN2CCCC(C(=O)Nc3ccc(-c4cccc(OC)c4)cc3)C2)cn1 (centres undefined),"inconclusive: 7.94 µM [inhibitor, partial curve, poor fit]",
CCOc1ccc(Br)cc1C1=CC(=O)C[C@H](c2ccc(OC)cc2)C1,active: 2.82 µM,
CCc1cc(-c2n[nH]c(=S)n2N)n(C)n1,,inactive: -0.265%
CN1C(=O)C(O)(CC(=O)c2ccccc2O)c2cc(Br)ccc21 (centres undefined),"inconclusive: 11.2 µM [inhibitor, partial curve, poor fit]",
CCOc1ccc(C)cc1S(=O)(=O)n1cnc2ccccc21,"inconclusive: 7.08 µM [inhibitor, partial curve, poor fit]",
CCOCCCNC1=C(Cl)C(=O)c2ccccc2C1=O,"inconclusive: 22.4 µM [inhibitor, single point]",
CCc1ccc(/C=C/c2c([N+](=O)[O-])c(=O)n(C)c(=O)n2C)cc1,active: 6.31 µM,
COc1cc(C(=O)Nc2ccc3c(c2)Cc2ccccc2-3)cc(OC)c1OC,"inconclusive: 2.51 µM [inhibitor, full curve]",
NS(=O)(=O)c1ccc(NC(=O)COC(=O)CNC(=O)C23CC4CC(CC(C4)C2)C3)cc1,,inactive: -5.25%
CCN(CC(=O)Nc1c(F)cccc1F)C(=O)c1cc([N+](=O)[O-])ccc1N1CCCCC1,"inconclusive: 31.6 µM [inhibitor, single point]",
O=C(OCc1ccccn1)c1ccc(COc2ccc3ccccc3c2)o1,"inconclusive: 8.91 µM [inhibitor, partial curve, poor fit]",
O=C(NC1CCCCCC1)c1c2c(nc3ccccc13)CCN(Cc1ccccc1)C2,,inactive: -0.859%

SMILES,Potency,"activity change, negative = inhibition"
CCCNC(=O)NC(=O)CSc1cccc(C(F)(F)F)c1,"inconclusive: 12.6 µM [inhibitor, single point]",
CC(=O)c1ccc(N=Nc2ccc(N)cc2)cc1,active: 3.98 µM,
Cc1c(CCOC(=O)CC23CC4CC(CC(C4)C2)C3)sc[n+]1CC(=O)c1ccccc1,"inconclusive: 5.01 µM [inhibitor, partial curve, poor fit]",
COc1cccc(NC(=O)c2ccccc2Br)c1,"inconclusive: 10 µM [inhibitor, single point]",
CC(=O)OC[C@H]1O[C@@H](n2ncc(=O)[nH]c2=O)[C@H](OC(C)=O)[C@@H]1OC(C)=O,"inconclusive: 0.0112 µM [inhibitor, full curve, poor fit]",
C#Cc1cccc(NC(=O)c2ccc(Cl)cc2Cl)c1,"inconclusive: 8.91 µM [inhibitor, partial curve, poor fit]",
O=C(c1ccc2c3c(cccc13)CC2)C1CCCN(Cc2ccc(OCCO)cc2)C1 (centres undefined),"inconclusive: 12.6 µM [inhibitor, single point]",
COCCNC(=O)Cn1nc(-c2ccccc2C)ccc1=O,,inactive: -7.04%
CSc1sc2ccccc2[n+]1CCCS(=O)(=O)[O-],,inactive: -1.29%
Cc1ccc(OCc2ccc(C(=O)N3CCOCC3)cc2)cc1C,"inconclusive: 14.1 µM [inhibitor, partial curve, poor fit]",
COc1ccc(OC)c(C2C(C(=O)c3ccccc3)=C(C)Nc3nc4ccccc4n32)c1 (centres undefined),,inactive: 13.6%
CCOc1ccc(C(C)=O)cc1COC(=O)c1ccc2c(c1)NC(=O)CS2,"inconclusive: 12.6 µM [inhibitor, single point]",
O=C(C1=C[C@@H](c2csc3ccccc23)C[C@@H](OCCCCO)O1)N1CCN(Cc2ccc3c(c2)OCO3)CC1,"inconclusive: 17.8 µM [inhibitor, single point]",
CCn1c(SCC(=O)NC2CCCC2)nnc1C(C)C,,inactive: -3.93%
CNC(=S)N(CCCN(C)C)Cc1cc2cc3c(cc2[nH]c1=O)OCCO3,"inconclusive: 10 µM [inhibitor, single point]",
COc1cc(C(=O)OCC(=O)NCCC2=CCCCC2)cc(OC)c1OC,,inactive: 12.7%
COc1ccc(S(=O)(=O)/N=C2/NC(=O)/C(=C/c3ccco3)S2)cc1,,inactive: -1.18%
Cc1nn(-c2ccccc2)c2c1C1(C(=O)Nc3ccccc31)N1C(=N2)Sc2ccccc21 (centres undefined),,inactive: 12.5%
CCOC(=O)c1c(-c2ccccc2)csc1NC(=O)C1CCCO1 (centres undefined),,inactive: -1.15%
CC(=O)c1c(N2CCN(C)CC2)nc(=S)n(Cc2ccccc2)c1C,,inactive: 0.839%
CN(C)c1oc(-c2ccccc2Cl)nc1S(=O)(=O)c1ccccc1,"inconclusive: 2.51 µM [inhibitor, full curve, poor fit]",
C(=N\Nc1ccc2ccccc2n1)/c1ccc2c(c1)OCCO2,active: 2.24 µM,
Cc1cccc(CN2CCN(c3nc4nonc4nc3NC3CC3)CC2=O)c1,,inactive: 3.08%
